Measured values as given in publication doi:10.1101/2020.02.21.958371.
Protein sequences can lack the tags named with them. For part of these data: For at least one entry, the source does not settle the construct or the ends of the probe. For part of these data: Weaker means in comparison with the reference protein, sequence or condition of that experiment. For part of these data: At least one verdict was read from the data and is not stated in words by the source.

Tests used:
[1] = target: T1, RMB1 MBD (EMSA) (Arabidopsis thaliana) (UniProt F4I209); experiment: EMSA; details: residues 1-81
T1 sequence (looked up): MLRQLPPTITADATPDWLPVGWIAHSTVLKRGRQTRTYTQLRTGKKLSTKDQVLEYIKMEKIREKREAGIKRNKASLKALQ

[2] = target: T1, RMB1 MBD (EMSA) (Arabidopsis thaliana); experiment: competition with a labelled probe; details: unlabeled competitor versus methylated probe; residues 1-81
[3] = target: T2, RMB1 MBD (Arabidopsis thaliana) (UniProt F4I209); experiment: MST; details: residues 1-81
T2 sequence (looked up): T1 sequence (looked up)

Sequence: TCCGTAAAACTTTTCCCGCCAACCAAACGAACTTTCGCCCTAC (double strand) [MEMS mCG]
- binding result ([1]; 5mC at forward 17, reverse strand line not in material): binds

Sequence: TCCGTAAAACTTTTCCCGCCAACCAAACGAACTTTCGCCCTAC (double strand) [MEMS mCHG]
- binding result ([1]; 5mC at forward 16, reverse unmethylated): binds

Sequence: TTTGGTACGGACTTTTAGTTACAAGAGAGCATTTAAACAAAAATGACCGGTAGATGGAA (double strand) [AT5G39160 mCHH]
- binding result ([1]; 5mC at forward 12, 22, 30, 38, reverse unmethylated): binds

Sequence: TCCGTAAAACTTTTCCCGCCAACCAAACGAACTTTCGCCCTAC (double strand) [MEMS mCHH]
- binding result ([1]; 5mC at forward 19 and reverse 40): binds

Sequence: TTTGGTACGGACTTTTAGTTACAAGAGAGCATTTAAACAAAAATGACCGGTAGATGGAA (double strand) [AT5G39160 Um]
- binding result [2]: binds more weakly
- Kd [3]: > 5.27 µM
